Assay [1] concerns the target T1, Fbxl7 WT-V5 (synthesized in TNT reticulocyte lysate) (UniProt Q9UJT9).
T1 sequence: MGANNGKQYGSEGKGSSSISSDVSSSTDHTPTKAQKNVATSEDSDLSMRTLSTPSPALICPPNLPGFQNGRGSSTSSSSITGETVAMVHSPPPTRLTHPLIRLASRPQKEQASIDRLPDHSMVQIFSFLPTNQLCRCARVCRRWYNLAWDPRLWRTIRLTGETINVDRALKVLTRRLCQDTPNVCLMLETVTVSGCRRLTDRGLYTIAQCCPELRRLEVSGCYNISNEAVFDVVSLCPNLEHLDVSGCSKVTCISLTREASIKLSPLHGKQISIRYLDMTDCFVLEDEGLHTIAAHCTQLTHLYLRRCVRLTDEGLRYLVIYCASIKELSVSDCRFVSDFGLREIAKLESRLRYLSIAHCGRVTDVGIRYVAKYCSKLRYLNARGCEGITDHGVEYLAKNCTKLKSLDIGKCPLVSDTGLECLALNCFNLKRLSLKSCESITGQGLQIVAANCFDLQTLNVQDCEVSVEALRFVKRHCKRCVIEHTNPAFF
In words: co-IP; Fbxl7 proteins synthesized in TNT reticulocyte lysate mixed with MLE12 cell lysates, i.p. by V5 antibody, immunoblotted for V5, Cul1, Skp1. (In general: Immunoblotting shows a protein as a band on a membrane.)

Protein sequences, listed by entry. Tags and fused reporters are not part of them.
UniProt Q9WTX6: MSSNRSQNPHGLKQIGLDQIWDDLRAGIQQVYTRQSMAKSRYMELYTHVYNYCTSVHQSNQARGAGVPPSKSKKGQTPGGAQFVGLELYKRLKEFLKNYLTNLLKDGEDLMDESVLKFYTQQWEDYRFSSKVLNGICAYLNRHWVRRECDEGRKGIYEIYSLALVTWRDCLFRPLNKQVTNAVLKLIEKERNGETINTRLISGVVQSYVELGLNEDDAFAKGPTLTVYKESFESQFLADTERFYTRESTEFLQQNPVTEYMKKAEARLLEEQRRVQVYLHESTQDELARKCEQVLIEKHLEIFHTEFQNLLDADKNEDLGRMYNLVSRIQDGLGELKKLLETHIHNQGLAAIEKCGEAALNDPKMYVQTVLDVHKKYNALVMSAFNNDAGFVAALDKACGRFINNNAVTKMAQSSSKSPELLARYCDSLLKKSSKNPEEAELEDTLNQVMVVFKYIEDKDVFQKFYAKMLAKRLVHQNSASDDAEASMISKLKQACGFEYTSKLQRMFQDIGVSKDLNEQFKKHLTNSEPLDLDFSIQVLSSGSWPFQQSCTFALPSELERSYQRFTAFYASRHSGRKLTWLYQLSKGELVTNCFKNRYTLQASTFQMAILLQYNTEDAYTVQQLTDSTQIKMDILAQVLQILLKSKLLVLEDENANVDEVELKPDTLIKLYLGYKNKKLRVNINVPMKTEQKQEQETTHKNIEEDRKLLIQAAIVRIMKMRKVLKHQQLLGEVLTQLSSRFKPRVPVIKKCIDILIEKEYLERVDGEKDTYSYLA

The target in assay [2] is T2, Fbxl7 FQ-V5 (Fbxl7^F67AQ68A-V5, synthesized in TNT reticulocyte lysate) (UniProt Q9UJT9).
T2 sequence: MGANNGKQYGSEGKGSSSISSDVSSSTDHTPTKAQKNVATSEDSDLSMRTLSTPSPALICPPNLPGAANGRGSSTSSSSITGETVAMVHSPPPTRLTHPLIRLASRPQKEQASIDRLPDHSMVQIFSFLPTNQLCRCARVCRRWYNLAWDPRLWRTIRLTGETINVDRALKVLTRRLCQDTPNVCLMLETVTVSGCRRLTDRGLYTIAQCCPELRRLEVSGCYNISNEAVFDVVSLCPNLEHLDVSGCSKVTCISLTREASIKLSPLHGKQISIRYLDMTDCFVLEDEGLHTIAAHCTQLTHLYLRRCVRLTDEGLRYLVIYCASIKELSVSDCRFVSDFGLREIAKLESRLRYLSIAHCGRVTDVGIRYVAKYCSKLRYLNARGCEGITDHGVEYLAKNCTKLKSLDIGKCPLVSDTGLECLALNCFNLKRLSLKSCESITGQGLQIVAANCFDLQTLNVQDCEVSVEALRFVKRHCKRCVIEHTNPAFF
Described as above.

Assay [3] deals with T3, Fbxl18 (co-immunoprecipitation of Supplementary Figure 1A) (UniProt Q96ME1).
T3 sequence: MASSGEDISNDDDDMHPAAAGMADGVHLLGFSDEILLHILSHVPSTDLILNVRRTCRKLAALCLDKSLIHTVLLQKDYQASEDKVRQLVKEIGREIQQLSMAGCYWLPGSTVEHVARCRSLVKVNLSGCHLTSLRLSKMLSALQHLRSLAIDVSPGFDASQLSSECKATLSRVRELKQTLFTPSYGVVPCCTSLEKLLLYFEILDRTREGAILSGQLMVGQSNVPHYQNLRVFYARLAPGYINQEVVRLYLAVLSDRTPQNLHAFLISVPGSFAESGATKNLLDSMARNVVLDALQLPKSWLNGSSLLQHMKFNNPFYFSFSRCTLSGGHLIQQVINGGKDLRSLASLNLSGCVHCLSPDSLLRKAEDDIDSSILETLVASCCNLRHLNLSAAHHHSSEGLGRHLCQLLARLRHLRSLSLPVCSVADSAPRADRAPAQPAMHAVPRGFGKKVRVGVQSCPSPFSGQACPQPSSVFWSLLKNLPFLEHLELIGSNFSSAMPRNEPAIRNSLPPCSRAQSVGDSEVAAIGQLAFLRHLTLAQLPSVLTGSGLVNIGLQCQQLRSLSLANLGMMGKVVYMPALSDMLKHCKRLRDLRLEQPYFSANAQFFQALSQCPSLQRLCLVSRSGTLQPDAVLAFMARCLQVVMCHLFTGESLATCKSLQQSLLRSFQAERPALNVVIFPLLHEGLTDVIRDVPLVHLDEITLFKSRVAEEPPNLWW
Briefly: co-IP; co-immunoprecipitation of Fbxl7 with randomly chosen F-box proteins (Supplementary Figure 1A); cells and bait not given.

Assay [4] has as its target T4, Fbxl18 (endogenous, Hela cells) (human (endogenous in Hela)) (UniProt Q96ME1).
T4 sequence: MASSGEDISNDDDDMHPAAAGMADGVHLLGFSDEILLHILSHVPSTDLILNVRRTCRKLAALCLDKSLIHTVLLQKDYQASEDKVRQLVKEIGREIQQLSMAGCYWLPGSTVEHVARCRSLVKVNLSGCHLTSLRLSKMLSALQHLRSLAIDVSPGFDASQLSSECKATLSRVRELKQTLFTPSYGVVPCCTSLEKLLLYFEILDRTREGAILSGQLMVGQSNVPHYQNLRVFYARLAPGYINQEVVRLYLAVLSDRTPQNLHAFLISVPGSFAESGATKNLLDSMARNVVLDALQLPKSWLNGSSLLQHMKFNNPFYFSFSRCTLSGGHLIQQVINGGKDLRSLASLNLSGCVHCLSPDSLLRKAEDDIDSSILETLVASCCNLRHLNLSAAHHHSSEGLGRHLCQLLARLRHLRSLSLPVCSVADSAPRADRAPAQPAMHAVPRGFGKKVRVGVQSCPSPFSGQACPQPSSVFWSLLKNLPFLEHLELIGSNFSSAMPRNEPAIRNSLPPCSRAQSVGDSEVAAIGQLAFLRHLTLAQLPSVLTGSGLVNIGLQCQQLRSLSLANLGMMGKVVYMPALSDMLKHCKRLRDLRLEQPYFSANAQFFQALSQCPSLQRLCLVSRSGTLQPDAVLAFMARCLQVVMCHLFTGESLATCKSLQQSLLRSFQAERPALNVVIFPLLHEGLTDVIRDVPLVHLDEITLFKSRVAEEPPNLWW
Briefly: co-IP; Hela cell lysates i.p. with endogenous Fbxl18 antibody, analysed by Fbxl7 immunoblotting; both endogenous.

Assay [5] has as its target T4, Fbxl18 (endogenous, Hela cells) (human (endogenous in Hela)). Briefly: co-IP; Hela cell lysates i.p. with Fbxl18 antibody, then mixed with V5-tagged Fbxl7 proteins synthesized in reticulocyte lysate; eluates blotted for Fbxl18 (bait) and V5.

Drawing on paper PMC4669792, this text covers binding for four molecules.

No constants are given. Whether binding was seen depends on the method and setting. Binding seen in cells or lysates may run through a third protein. Some binding calls cover weakened binding; strength is not graded here. For some assays here: Where a sequence is shown, tags or fusion partners need not be part of it.

Consider “Cul1 (endogenous, MLE12 cells) (from UniProt Q9WTX6 1-776)”, for which the binding result in assay [1] and in assay [2] was “binds” in each case.

B1: Fbxl7 (co-immunoprecipitation of Supplementary Figure 1A) (protein, UniProt Q9UJT9 1-491)
chain: MGANNGKQYGSEGKGSSSISSDVSSSTDHTPTKAQKNVATSEDSDLSMRTLSTPSPALICPPNLPGFQNGRGSSTSSSSITGETVAMVHSPPPTRLTHPLIRLASRPQKEQASIDRLPDHSMVQIFSFLPTNQLCRCARVCRRWYNLAWDPRLWRTIRLTGETINVDRALKVLTRRLCQDTPNVCLMLETVTVSGCRRLTDRGLYTIAQCCPELRRLEVSGCYNISNEAVFDVVSLCPNLEHLDVSGCSKVTCISLTREASIKLSPLHGKQISIRYLDMTDCFVLEDEGLHTIAAHCTQLTHLYLRRCVRLTDEGLRYLVIYCASIKELSVSDCRFVSDFGLREIAKLESRLRYLSIAHCGRVTDVGIRYVAKYCSKLRYLNARGCEGITDHGVEYLAKNCTKLKSLDIGKCPLVSDTGLECLALNCFNLKRLSLKSCESITGQGLQIVAANCFDLQTLNVQDCEVSVEALRFVKRHCKRCVIEHTNPAFF
In the case of B1, the binding entry in assay [3] is listed as “binds”.

B2: Fbxl7 (endogenous, Hela cells) (protein, UniProt Q9UJT9 1-491)
chain: MGANNGKQYGSEGKGSSSISSDVSSSTDHTPTKAQKNVATSEDSDLSMRTLSTPSPALICPPNLPGFQNGRGSSTSSSSITGETVAMVHSPPPTRLTHPLIRLASRPQKEQASIDRLPDHSMVQIFSFLPTNQLCRCARVCRRWYNLAWDPRLWRTIRLTGETINVDRALKVLTRRLCQDTPNVCLMLETVTVSGCRRLTDRGLYTIAQCCPELRRLEVSGCYNISNEAVFDVVSLCPNLEHLDVSGCSKVTCISLTREASIKLSPLHGKQISIRYLDMTDCFVLEDEGLHTIAAHCTQLTHLYLRRCVRLTDEGLRYLVIYCASIKELSVSDCRFVSDFGLREIAKLESRLRYLSIAHCGRVTDVGIRYVAKYCSKLRYLNARGCEGITDHGVEYLAKNCTKLKSLDIGKCPLVSDTGLECLALNCFNLKRLSLKSCESITGQGLQIVAANCFDLQTLNVQDCEVSVEALRFVKRHCKRCVIEHTNPAFF
With B2, in assay [4], the binding result was “binds”.

B3: Fbxl7 WT-V5 (synthesized in TNT reticulocyte lysate) (protein, UniProt Q9UJT9 1-491)
chain: MGANNGKQYGSEGKGSSSISSDVSSSTDHTPTKAQKNVATSEDSDLSMRTLSTPSPALICPPNLPGFQNGRGSSTSSSSITGETVAMVHSPPPTRLTHPLIRLASRPQKEQASIDRLPDHSMVQIFSFLPTNQLCRCARVCRRWYNLAWDPRLWRTIRLTGETINVDRALKVLTRRLCQDTPNVCLMLETVTVSGCRRLTDRGLYTIAQCCPELRRLEVSGCYNISNEAVFDVVSLCPNLEHLDVSGCSKVTCISLTREASIKLSPLHGKQISIRYLDMTDCFVLEDEGLHTIAAHCTQLTHLYLRRCVRLTDEGLRYLVIYCASIKELSVSDCRFVSDFGLREIAKLESRLRYLSIAHCGRVTDVGIRYVAKYCSKLRYLNARGCEGITDHGVEYLAKNCTKLKSLDIGKCPLVSDTGLECLALNCFNLKRLSLKSCESITGQGLQIVAANCFDLQTLNVQDCEVSVEALRFVKRHCKRCVIEHTNPAFF
As to B3, the binding result in assay [5] was “binds”.
